PMC5719087

What was measured:
Assay in all cases: split reporter; BiFC with pYFN43 and pYFC43 fusions co-infiltrated (with p19) into N. benthamiana abaxial leaf cells by A. tumefaciens; confocal microscopy three days after infiltration
[1] = target: T1, Arabidopsis thaliana dehydrin AtERD10 (Arabidopsis thaliana) (UniProt P42759)
T1 sequence: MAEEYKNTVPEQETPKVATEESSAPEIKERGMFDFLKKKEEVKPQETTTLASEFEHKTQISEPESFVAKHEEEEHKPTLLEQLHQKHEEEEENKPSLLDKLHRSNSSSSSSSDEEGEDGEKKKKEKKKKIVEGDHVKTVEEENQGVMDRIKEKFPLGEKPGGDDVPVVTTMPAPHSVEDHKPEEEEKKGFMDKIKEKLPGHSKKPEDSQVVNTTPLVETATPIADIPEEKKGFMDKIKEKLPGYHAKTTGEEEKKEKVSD

[2] = target: T2, Arabidopsis thaliana dehydrin AtCOR47 (Arabidopsis thaliana) (UniProt P31168)
T2 sequence: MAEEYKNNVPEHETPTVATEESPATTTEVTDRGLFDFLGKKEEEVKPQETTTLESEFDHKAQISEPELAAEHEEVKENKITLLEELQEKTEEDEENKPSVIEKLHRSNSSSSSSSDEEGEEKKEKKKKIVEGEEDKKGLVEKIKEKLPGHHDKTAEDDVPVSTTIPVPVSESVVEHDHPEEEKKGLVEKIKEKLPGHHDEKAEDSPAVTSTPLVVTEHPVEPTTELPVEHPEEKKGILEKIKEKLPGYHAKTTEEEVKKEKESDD

[3] = target: T3, Arabidopsis thaliana dehydrin AtRAB18 (Arabidopsis thaliana) (UniProt P30185)
T3 sequence: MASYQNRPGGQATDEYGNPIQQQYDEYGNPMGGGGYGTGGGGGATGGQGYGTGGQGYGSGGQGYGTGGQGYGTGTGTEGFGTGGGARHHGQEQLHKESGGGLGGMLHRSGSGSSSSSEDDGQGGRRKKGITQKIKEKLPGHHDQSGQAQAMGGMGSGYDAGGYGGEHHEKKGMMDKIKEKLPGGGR

[4] = target: OpsDHN1 dehydrin from Opuntia streptacantha (Opuntia streptacantha)
[5] = target: OpsDHN1ΔHis version (Opuntia streptacantha)

- binding [1]: binds
- binding [2]: binds
- binding [3]: binds
Molecule: OpsDHN1 dehydrin from Opuntia streptacantha

- binding [1]: binds
- binding [2]: binds
- binding [3]: binds
Molecule: OpsDHN1ΔHis version (Opuntia streptacantha)

- binding [4]: binds
- binding [5]: binds
B1: Arabidopsis thaliana dehydrin AtCOR47 (protein, UniProt P31168 1-265)
chain: T2 sequence

- binding [4]: binds
- binding [5]: binds
B2: Arabidopsis thaliana dehydrin AtRAB18 (protein, UniProt P30185 1-186)
chain: T3 sequence

- binding [4]: binds
- binding [5]: binds
B3: Arabidopsis thaliana dehydrin AtERD10 (protein, UniProt P42759 1-260)
chain: T1 sequence

No constants are given. Whether binding was seen depends on the method and setting. In cells and extracts the contact can be indirect. A result given as binding can be weak or reduced; the word gives no strength. Each block holds one molecule with its values, some of them ahead of it.
